{
  "source": "PubChem BioAssay AID493014",
  "about": "(National Center for Advancing Translational Sciences (NCATS), 2011)",
  "experiment": "qHTS Assay to Find Inhibitors of Chronic Active B-Cell Receptor Signaling",
  "conditions": "ABC-DLBCL IkBa-CBG/CBR reporter, luminescence ratio (green luciferase fused to IkBa over red control in TMD8 lymphoma cells), 4 h",
  "procedure,_shortened": "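TMD8 ABC-DLBCL cells carrying doxycycline-inducible green luciferase fused to IkappaBalpha plus unfused red luciferase were exposed to compounds (up to 46 uM) for 4 hrs at 37C. Activity came from the overlap-corrected green/red luminescence ratio.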",
  "key": {"[1]": {"conditions": "measured here: IkBa-CBG green luminescence"}, "[2]": {"conditions": "measured here: CBR red luminescence, cell number"}},
  "note": "The list shows a part of the results. These are further read-outs of the screen, such as a control signal, another cell line or another target. No call is given for them. Most of these compounds were active or inconclusive in the main read-out, so they are no random draw. The note in brackets gives the kind of curve behind each potency; many fits are weak.",
  "data": [
    {"smiles": "COc1ccc(-c2ccc(CCC(=O)O)n2-c2ccccc2O)cc1", "values": [
      {"measurement": "AC50", "setting": "[1]", "result": "22.4 µM [falling, single point]"}
    ]},
    {"smiles": "O=c1c2ccccc2nc(SCc2nc(-c3ccccc3)no2)n1-c1ccc(F)cc1", "values": [
      {"measurement": "AC50", "setting": "[2]", "result": "6.51 µM [rising, single point]"}
    ]},
    {"smiles": "CC(C)C[C@H](NC(=O)c1nc[nH]c1C(=O)NCC(=O)OC(C)(C)C)C(=O)OC(C)(C)C", "values": [
      {"measurement": "AC50", "setting": "[2]", "result": "20 µM [falling, partial curve, poor fit]"}
    ]},
    {"smiles": "CCn1cc(C(=O)N[C@H](C(=O)NCCCOC)C(C)C)c(=O)c2cc3c(cc21)OCO3", "values": [
      {"measurement": "AC50", "setting": "[2]", "result": "2.82 µM [falling, partial curve]"}
    ]},
    {"smiles": "COc1cccc(/C=C/C(=O)NNC(=O)c2ccco2)c1OC", "values": [
      {"measurement": "AC50", "setting": "[2]", "result": "20.6 µM [falling, partial curve, poor fit]"}
    ]},
    {"smiles": "COc1cc(OC)c(C(=O)NNC(=O)c2ccccc2-n2cccc2)cc1OC", "values": [
      {"measurement": "AC50", "setting": "[2]", "result": "5.17 µM [falling, single point]"}
    ]},
    {"smiles": "CC1=Nc2ccccc2/C1=C/c1sc(=O)n(CC(=O)N2CCCC2)c1O", "values": [
      {"measurement": "AC50", "setting": "[2]", "result": "3.55 µM [falling, full curve]"}
    ]},
    {"smiles": "O=C(Nc1nccs1)C(NS(=O)(=O)c1ccc(Br)s1)c1ccccc1", "note": "(stereo not drawn)", "values": [
      {"measurement": "AC50", "setting": "[2]", "result": "35.5 µM [falling, single point]"}
    ]},
    {"smiles": "CCOC(=O)CC(=O)CSc1nc(C)cc(-c2cccnc2)c1C#N", "values": [
      {"measurement": "AC50", "setting": "[2]", "result": "11.6 µM [rising, partial curve, poor fit]"}
    ]},
    {"smiles": "O=C(O)c1cccc(NC2=C(Cl)C(=O)c3ccccc3C2=O)c1", "values": [
      {"measurement": "AC50", "setting": "[2]", "result": "1.12 µM [falling, full curve]"}
    ]},
    {"smiles": "O=C(O)c1ccc(-c2ccccc2)[nH]1", "values": [
      {"measurement": "AC50", "setting": "[2]", "result": "3.98 µM [rising, partial curve, poor fit]"}
    ]},
    {"smiles": "Cc1cccc(Oc2nc3ccccn3c(=O)c2/C=C(\\C#N)C(=O)NC2CCS(=O)(=O)C2)c1", "note": "(stereo not drawn)", "values": [
      {"measurement": "AC50", "setting": "[2]", "result": "25.9 µM [falling, partial curve, poor fit]"}
    ]},
    {"smiles": "NC(=S)N=Nc1c(O)n(CC(=O)Nc2ccccc2)c2ccccc12", "values": [
      {"measurement": "AC50", "setting": "[2]", "result": "3.98 µM [rising, single point]"}
    ]},
    {"smiles": "COc1ccc(C2=CSC3=NCCN23)cc1Cl", "values": [
      {"measurement": "AC50", "setting": "[2]", "result": "35.5 µM [rising, single point]"},
      {"measurement": "AC50", "setting": "[1]", "result": "11.2 µM [falling, partial curve, poor fit]"}
    ]},
    {"smiles": "C/C=C\\C=C\\C(=O)Nc1cccc(C2=NOC3(C2)C[C@@H](C(N)=O)N(C(=O)C(c2ccccc2)c2ccccc2)C3)c1", "note": "(stereo partly drawn)", "values": [
      {"measurement": "AC50", "setting": "[2]", "result": "15.8 µM [falling, partial curve, poor fit]"}
    ]},
    {"smiles": "COc1ccccc1NC(=O)CN1C(=O)c2ccccc2Sc2ccc(C(=O)N3CCCC3)cc21", "values": [
      {"measurement": "AC50", "setting": "[2]", "result": "11.2 µM [falling, partial curve, poor fit]"}
    ]},
    {"smiles": "O=S(=O)(Nc1ccc(Cc2ccncc2)cc1)c1ccc(Cl)c(Cl)c1", "values": [
      {"measurement": "AC50", "setting": "[2]", "result": "25.1 µM [falling, single point]"}
    ]},
    {"smiles": "CC(C)(C)OC(=O)N1CCC(C(=O)Nc2ccc(C(=O)N3CCOCC3)cc2)CC1", "values": [
      {"measurement": "AC50", "setting": "[2]", "result": "0.517 µM [rising, full curve, poor fit]"}
    ]},
    {"smiles": "CCCC(=O)c1ccc(N2CCC(C)CC2)c(F)c1", "values": [
      {"measurement": "AC50", "setting": "[2]", "result": "29.1 µM [rising, single point]"}
    ]},
    {"smiles": "CCCCNC(=O)Nc1cc(C(=O)OC)ccc1C", "values": [
      {"measurement": "AC50", "setting": "[2]", "result": "35.5 µM [rising, single point]"}
    ]},
    {"smiles": "O=C(N/N=C1/CCSC1)c1cc(Br)ccc1O", "values": [
      {"measurement": "AC50", "setting": "[2]", "result": "0.891 µM [falling, full curve]"}
    ]},
    {"smiles": "O=C(NCCO)C1(c2ccc(Cl)cc2)CCCC1", "values": [
      {"measurement": "AC50", "setting": "[2]", "result": "2.91 µM [rising, single point]"}
    ]},
    {"smiles": "CCCCC#Cc1cncc(C(=O)NN)c1", "values": [
      {"measurement": "AC50", "setting": "[2]", "result": "3.55 µM [falling, partial curve]"}
    ]},
    {"smiles": "Oc1ccc(/C=N/Nc2cccc(Cl)n2)c(O)c1", "values": [
      {"measurement": "AC50", "setting": "[2]", "result": "8.91 µM [falling, partial curve, poor fit]"}
    ]},
    {"smiles": "O=C(Nc1ncnc2sc3c(c12)CCCCC3)c1ccc(F)cc1", "values": [
      {"measurement": "AC50", "setting": "[2]", "result": "29.1 µM [rising, single point]"}
    ]},
    {"smiles": "O=C(CS(=O)(=O)Cc1ccccc1)N1CCc2ccccc2C1", "values": [
      {"measurement": "AC50", "setting": "[2]", "result": "0.82 µM [rising, partial curve, poor fit]"}
    ]},
    {"smiles": "COCc1cc(C)nc(N2CCNCC2)c1C#N", "values": [
      {"measurement": "AC50", "setting": "[2]", "result": "4.61 µM [rising, full curve, poor fit]"}
    ]},
    {"smiles": "O=C(O)Cc1ccc(C(=O)CSc2ccccc2)s1", "values": [
      {"measurement": "AC50", "setting": "[2]", "result": "35.5 µM [falling, single point]"}
    ]},
    {"smiles": "Fc1ccc(-c2csc(=S)[nH]2)cc1", "values": [
      {"measurement": "AC50", "setting": "[1]", "result": "35.5 µM [falling, single point]"}
    ]},
    {"smiles": "COc1ccccc1-c1cc(C(=O)N/N=C\\c2cn(C)nc2C)c2ccccc2n1", "values": [
      {"measurement": "AC50", "setting": "[2]", "result": "3.26 µM [rising, single point]"}
    ]},
    {"smiles": "CN(CCO)c1ccc(-c2n[nH]c(=O)c3ccccc23)cc1[N+](=O)[O-]", "values": [
      {"measurement": "AC50", "setting": "[2]", "result": "12.6 µM [falling, single point]"}
    ]},
    {"smiles": "Cc1ccnc2c1ccc1c(C)ccnc12", "values": [
      {"measurement": "AC50", "setting": "[2]", "result": "29.1 µM [falling, single point]"}
    ]},
    {"smiles": "CCC(=O)c1ccc(OCC(=O)N2CCc3cc(OC)c(OC)cc3C2)cc1", "values": [
      {"measurement": "AC50", "setting": "[2]", "result": "5.8 µM [rising, single point]"}
    ]},
    {"smiles": "CN(C)c1cc(NC(=O)CNC(C)(C)C)c2ccccc2n1", "values": [
      {"measurement": "AC50", "setting": "[2]", "result": "11.2 µM [falling, partial curve, poor fit]"}
    ]},
    {"smiles": "CC(=O)Nc1cccc(NC(=O)c2cc(C)on2)c1", "values": [
      {"measurement": "AC50", "setting": "[2]", "result": "20.6 µM [falling, partial curve]"}
    ]},
    {"smiles": "COc1cccc(CN2CC(C(=O)NCc3ccc(Cl)s3)CCC2=O)c1", "note": "(stereo not drawn)", "values": [
      {"measurement": "AC50", "setting": "[2]", "result": "11.2 µM [falling, partial curve, poor fit]"}
    ]},
    {"smiles": "O=C(COC(=O)c1ccc(O)cc1O)NC1CCCCCC1", "values": [
      {"measurement": "AC50", "setting": "[2]", "result": "29.1 µM [falling, single point]"}
    ]},
    {"smiles": "C=CCn1c(=O)/c(=C/c2ccc(Cl)cc2)s/c1=C(/C#N)c1nnc2n1CCCCC2", "values": [
      {"measurement": "AC50", "setting": "[2]", "result": "8.2 µM [rising, partial curve, poor fit]"}
    ]},
    {"smiles": "COc1ccccc1C(=O)N(CCC1CCCN1C)c1nc2ccccc2s1", "note": "(stereo not drawn)", "values": [
      {"measurement": "AC50", "setting": "[2]", "result": "3.55 µM [falling, full curve]"}
    ]},
    {"smiles": "O=C(/C=C/c1ccco1)N1CCN(S(=O)(=O)c2cccc([N+](=O)[O-])c2)CC1", "values": [
      {"measurement": "AC50", "setting": "[2]", "result": "3.26 µM [rising, partial curve]"}
    ]},
    {"smiles": "CCOCc1[nH]c(=S)[nH]c(=O)c1Cc1ccc(OC(C)C)cc1", "values": [
      {"measurement": "AC50", "setting": "[2]", "result": "4.47 µM [rising, full curve, poor fit]"}
    ]},
    {"smiles": "CCOCC(=O)Nc1ccccc1C(=O)OCC", "values": [
      {"measurement": "AC50", "setting": "[2]", "result": "6.51 µM [rising, single point]"}
    ]}
  ]
}
